According to PubChem BioAssay AID1794844 (National Center for Advancing Translational Sciences (NCATS), 2023):
Fewer than 10 of roughly 2,800 compounds were called active. Inconclusive results (about 7%) are left out. Calls follow the shape of the dose curve; as a rule, active = well fitted inhibition curve with a large enough effect; inconclusive = small, poorly fitted or top-dose-only effect; inactive = no such curve, though single readings can be large or run the other way. The list shows a part of the results.

Chains of the proteins cited; added tags and fusions are not shown. Lines headed by an entry give the natural chain unless they say otherwise; changes in a name come on top.
UniProt C7C422: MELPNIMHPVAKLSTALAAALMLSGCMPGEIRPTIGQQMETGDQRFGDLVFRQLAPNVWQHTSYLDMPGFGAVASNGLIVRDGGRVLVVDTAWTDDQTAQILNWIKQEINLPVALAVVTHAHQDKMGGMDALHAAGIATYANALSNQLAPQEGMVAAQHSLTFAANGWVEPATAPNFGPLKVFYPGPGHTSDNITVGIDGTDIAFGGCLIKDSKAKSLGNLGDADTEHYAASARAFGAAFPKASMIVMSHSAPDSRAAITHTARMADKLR

What follows are compounds tested against Metallo-beta-lactamase type 2 (Klebsiella pneumoniae) (UniProt C7C422) (assay: qHTS to identify inhibitors of the New Delhi Metallo-beta-lactamase (NDM): Nitrocefin screen against the machine-based learning selections.). Settings: NDM-1 enzyme, nitrocefin hydrolysis, absorbance 485 nm; activity, negative = inhibition: at the top concentration.
In short: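 NDM-1 (2 nM final) in 50 mM HEPES pH 7.0, 1 uM Zn2SO4, 0.01% Tween20 was preincubated with compounds for >30 min. Nitrocefin (16.7 uM final) was read at 485 nm after 15 min, and meropenem (50 uM final) at 300 nm after 30 min.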
Also: % of control where 0% means no effect.

activity, negative = inhibition, inactive:
O=C(Nc1ccccc1)Nc1ccc(=O)n2c1[C@@H]1C[C@@H](CN(C(=O)COc3ccccc3)C1)C2 -2.89%
COCc1nc(C2CCCN(C(=O)c3nccn3C)C2)no1 (configuration not stated) -3.96%
O=C(C[C@@H]1O[C@H](CNS(=O)(=O)c2ccc(Cl)cc2)[C@@H](O)[C@H]1O)N1CCN(c2ccc(F)cc2)CC1 14.7%
CN(Cc1cccnc1)Cc1nc(C2(O)CCN(Cc3ccc(F)cc3)CC2)cs1 -7.36% [at 57.5 µM]
COCCn1ncc(N2CCC(NC(=O)C(C)C)CC2)cc1=O -4.74%
COc1ccc(C[C@H](NC(=O)[C@@]2(O)C[C@@H](O)[C@H](O)[C@@H](NC(=O)Nc3ccc(C)cc3)C2)C(N)=O)cc1 -1.82%
COc1ccc(CCC(=O)N2CCC3(CC2)CCC(O)(CN(C)C)CC3)cc1 6.82%
COCC(=O)N[C@H]1CO[C@H]2[C@@H]1OC[C@@H]2Nc1nccc(-c2cccc(C#N)c2)n1 4.59% [at 57.5 µM]
O=S(=O)(c1ccc(F)cc1)N1CCCC(Cc2noc(-c3cnccn3)n2)C1 (configuration not stated) -2.02%
COc1ccc(CCc2nc3nccc(-c4ccc(OC)c(OC)c4)n3n2)cc1OC 2.07%
OC1(CN2CCCCC2)CCN(Cc2ccc(C(F)(F)F)cc2F)C1 (configuration not stated) 1.52%
COc1cccc(CC(=O)N[C@@H]2CCC[C@@H](C(=O)NCc3cc(F)cc(F)c3)CC(=O)N(C)C2)c1 0.922%
O=c1c2c(CO)c(-c3ccc(F)cc3)nn2ccn1Cc1cc(F)ccc1F -7.08%
COCc1cc(CNC(=O)c2cn(C3CCC(N)CC3)nn2)[nH]n1 (configuration not stated) -1.37%
Cn1ccc2c(C(=O)N[C@H](c3cccs3)C3CC(O)C3)cccc21 (some centres not stated) -3.78%
OCC1(O)CCN(C2CCN(c3ccc4c(c3)OCO4)CC2)CC1 -2.79%
O=C(CN1CCOc2ccccc2C1)N[C@H]1CCOC[C@H]1C1CCOCC1 1.59%
COC(=O)[C@H](Cc1ccc(OC)cc1)NC(=O)[C@@H]1CN(C(=O)c2cccc(F)c2)CCN1C(C)=O -10.5%
COC[C@H]1CCCN1C(=O)C(C)[C@@H]1CC[C@@]2(C)CC[C@H](NC(C)=O)[C@@H](C)[C@@H]2[C@H]1O (some centres not stated) -3.87% [at 57.5 µM]
CC[C@H]1CN(S(=O)(=O)c2ccccc2)CC[C@H]1CC(=O)NCCOC 2.78% [at 57.5 µM]
O=C1Cc2c(-c3cccc(O)c3)n[nH]c2CN1CC1CC1 -0.331% [at 76.7 µM]
O=C(N[C@H]1CCN2C(=O)[C@@H](Cc3c[nH]c4ccccc34)NC(=O)[C@H]12)c1cnccn1 -5.81% [at 57.5 µM]
CN(C)CCN1CC2(CCCN(C(=O)CN(C)c3ccccc3)C2)CCC1=O (configuration not stated) -14.1%
c1ccc(-c2cn3c(n2)CO[C@@H](CNCc2cccs2)C3)cc1 3.52% [at 57.5 µM]
COc1ccc(C(=O)N2CCC(c3nc(C4CCOCC4)no3)C2)cc1OC (configuration not stated) 0.0138%
COCCN1C[C@H]2CN(C(=O)c3ccccc3OC)CCN2C1=O -2.11% [at 57.5 µM]
O=C(NC1CCCC1)N1CC(c2nnc(-c3ccncc3)o2)C2(CCOCC2)C1 (configuration not stated) -7.8%
O=C(NCCc1csc(-c2cnccn2)n1)C1CC2(CCNCC2)CN1 (configuration not stated) -7.69%
COc1ccc(-c2ccc3ncc(Nc4ccc(CCO)cc4)n3n2)cn1 -0.973% [at 57.5 µM]
COc1cccc(Nc2ccc3c(n2)C(C)(C(=O)NCCc2cnc[nH]2)CN(C)C3)c1 (configuration not stated) 6.74% [at 57.5 µM]
O=C(NCCc1ccccc1)C1CCN(C(=O)c2ncn3c2COC(c2ccc(F)cc2)C3)CC1 (configuration not stated) 5.21%
COCCOc1ccnc(-c2noc([C@@H]3CCCN3Cc3ccc(C(=O)O)cc3)n2)c1 -9.09% [at 57.5 µM]
CSCC(=O)N1C[C@@H](NC(=O)Nc2ccc(F)cc2F)C[C@H]1C(=O)N(C)CC(N)=O -15%
COc1cccc(C(=O)N[C@H]2[C@H](O)[C@H](O)C[C@@H]2c2ccc(N3CCOCC3)nc2)c1 -3.8% [at 57.5 µM]
CC(C)C[C@@H]1N[C@H](C(=O)NCc2cccs2)Cc2c[nH]c3cccc1c23 -5.41% [at 57.5 µM]
O=C(NCc1nc(-c2ccncc2)n[nH]1)[C@H]1CCC[C@H](O)C1 -10.4%
O=c1cc(-c2ccccn2)oc2c(Nc3cccnc3)nccc12 0.933% [at 57.5 µM]
CCC1C(=O)N(C)CCN1C(=O)c1coc(COc2ccc3c(c2)OCO3)n1 (configuration not stated) 10%
COC(C)c1ccc(-c2cc(C(=O)O)cc(S(=O)(=O)NC(C)C)c2)cc1 (configuration not stated) -6.09%
OC1CC(c2cc(NCCCn3ccc4ccccc43)ncn2)C1 (configuration not stated) 1.6%
CNS(=O)(=O)CCNc1nccc(-c2cc(C(=O)O)ccn2)n1 -23.4%
COC[C@H]1C[C@@H](NS(=O)(=O)c2cccc(F)c2)[C@H](O)[C@@H]1O -0.036% [at 57.5 µM]
NS(=O)(=O)c1ccc(-n2nc(-c3ccncc3)nc2C2CCOC2)cc1 (configuration not stated) 0.0285%
CN1CCC(NC[C@H]2COCc3nc4cc(S(C)(=O)=O)ccc4n32)CC1 4.08% [at 57.5 µM]
CCCOc1ccccc1C(=O)N1CC[C@H](N(C)C)[C@H](CCC(=O)O)C1 -5%
NC(=O)CO[C@@H]1CO[C@H]2[C@@H]1OC[C@@H]2NC(=O)NCc1ccccc1 -7.38% [at 57.5 µM]
O=C1NCCCCCN(C(=O)NC2CCCCC2)[C@H]2CCCC[C@@H]12 3.79%
O=C1N(CC2CCC2)CCCC12CCN(Cc1ccc(-c3ccn[nH]3)s1)C2 (configuration not stated) 13.5%
c1ccc(Nc2cc3c(cn2)CN(Cc2ccc4[nH]ccc4c2)CCN3)cc1 21.3% [at 57.5 µM]
Cc1ccccc1N(C)C1CN(Cc2ccccc2)C1 -0.333% [at 57.5 µM]
COCCN1CCC(CN(Cc2ccncc2)C(=O)c2cnco2)CC1 -4.07%
CC(C)(CO)CNC(=O)c1cnc2c(c1)N([S+](=O)([O-])c1cccnc1)CCC2 1.34% [at 57.5 µM]
O=C(Nc1cccnc1)c1ccnc(-c2nnc3ccc(Nc4ccccc4)nn23)c1 3.33% [at 57.5 µM]
Cc1nc2ccc(C(=O)N3C[C@@H](CN4CCCCC4)[C@@H](CO)C3)cc2s1 -12.9%
O=C(Nc1ccccc1)O[C@@H]1CO[C@H]2[C@@H]1OC[C@@H]2NCc1ccccc1 -1.59% [at 57.5 µM]
COCCC(=O)N1CC[C@H](c2nc3ccccc3o2)C1 -7.27% [at 76.7 µM]
CCn1cc(S(=O)(=O)N2CCC3(CC2)CN(Cc2ccc(OC)cc2)C3=O)cn1 -3.15%
Cc1[nH]cnc1CN1CCNc2cc(Nc3ccccc3)ncc2C1 2.62% [at 57.5 µM]
c1cncc(-c2nc3c(c(NCc4ccccc4-n4ccnc4)n2)CNC3)c1 4.93%
CN(C)CCNC(=O)Cc1c[nH]c2ncc(-c3ccccc3)cc12 2.38% [at 57.5 µM]
CC1(CCCCc2ccccc2)COc2ccc(C(=O)NCc3cnccn3)cc2N1 (configuration not stated) 1.6% [at 57.5 µM]
Cc1ccc(CN2CCC(Oc3ccc4ncccc4c3)(C(=O)O)CC2)o1 -4.72%
O=C1CCN(S(=O)(=O)c2ccccc2)CCCN(C2CCCCCC2)CCN1 3.1%
O=C(N[C@H]1C[C@H]2C(=O)NC[C@@H](CCC(=O)N3CCCCC3)N2C1)c1ccco1 -3.2% [at 57.5 µM]
CC(C)NC(=O)NCC1(COc2ccccc2)C[C@@H](O)[C@@H](O)C1 (some centres not stated) 2.06% [at 57.5 µM]
O=C(Cc1ccccc1)N1CCNc2cnc(Nc3ccccc3)nc2C1 6.3% [at 57.5 µM]
CC(C)CS(=O)(=O)Nc1ccc([C@H]2OCC(=O)N(Cc3ccc(F)cc3)[C@@H]2CO)cc1 2.38%
CCn1ncc(N2CCC(NC(=O)c3ccccc3OC)CC2)cc1=O -6.04%
CCNC(=O)c1ccccc1-c1ccc(O)cc1 -2.89%
Cc1cccc(CN2CCNc3cc(Nc4cccnc4)ncc3C2)c1 2.81% [at 57.5 µM]
O=C(CCc1nc2ccccc2s1)N[C@H](c1ccccn1)C1CC(O)C1 (some centres not stated) 1.88%
Cc1nc(C(=O)NC2CC(c3cc(N4CCC(O)C4)ncn3)C2)cs1 (configuration not stated) -0.719%
CC(C)c1noc([C@@H]2C[C@H](NC(=O)Nc3ccc(F)cc3)CN2C)n1 -0.362% [at 57.5 µM]
Cc1noc(C)c1S(=O)(=O)N1CC(c2noc(C3CCCN3C)n2)C1 (configuration not stated) 0.117%
O=C(Nc1ccc([C@H]2OCC(=O)N(C3CCOCC3)[C@@H]2CO)cc1)c1cnccn1 317% [at 57.5 µM]
C[C@]1(CO)[C@H]2Cc3sc(NC(=O)c4ccnc(Cl)c4)nc3[C@@H](CC(=O)NCc3ccco3)[C@]2(C)CC[C@H]1O 0.333%
O=C(Cc1c[nH]c2ncc(-c3ccccc3)cc12)NCc1cnccn1 7.61% [at 57.5 µM]
N[C@H]1CN(C(=O)c2sccc2Cl)C[C@@H]1C1CC1 -7%
CN1CCC(N2C[C@@H]3C[C@H]2C(=O)N(CC2CC2)c2ccccc2O3)CC1 -6.63% [at 57.5 µM]
Fc1ccc(CNc2cc3c(cn2)CN(Cc2ccncc2)CCN3)cc1 2.96% [at 57.5 µM]
Cc1ccccc1NC(=O)c1cnc2c(c1)N(Cc1ccccc1)CCC2 -2.43% [at 57.5 µM]
O=C1Nc2ccc(-c3ccccc3F)cc2C(=O)N2C[C@@H](NS(=O)(=O)c3ccc(F)cc3)C[C@@H]12 1.17%
Cc1ccc(C(=O)NC2CCCN(c3cc(N(C)C)ncn3)C2)s1 (configuration not stated) -0.497%
O=C1CCCN1CCCN1C(=O)[C@@H]2C[C@@H](O)CN2C2(CN(C3CCC(F)(F)CC3)C2)C1=O -8.03%
C#CCNC(=O)CC[C@H]1CNC(=O)[C@@H]2[C@@H](CCN2Cc2ccc(C(F)(F)F)cc2)N1C -6.67%
COCC(=O)N[C@H]1CC[C@]2(C)CC[C@@H](C(C)C(=O)NC3CC3)[C@H](O)[C@H]2[C@@H]1C (some centres not stated) 3.33% [at 57.5 µM]
COc1ccc(F)c(-c2nc(CN(C)C(C)c3cccs3)c(C)o2)c1 (configuration not stated) -1%
Cc1cccc(CC(=O)N2CCC(n3cc(-c4nc(-c5ccccc5)no4)nn3)CC2)c1 0.0288%
Fc1ccc(-c2nnc3ccc(NCCc4ccccn4)nn23)nc1 -22.1% [at 57.5 µM]
CCCc1ccc2oc(C(=O)N(CC)Cc3ccncc3)c(C)c2c1 216%
CN(C)Cc1cc(-c2nccn2CC2(CO)CCCC2)ccc1O 2.34%
COc1ccc(Nc2cc3c(cn2)CN(CCc2ccccc2)CCN3)cn1 8.87% [at 57.5 µM]
O=C(O)CCn1ncc2cc(OCc3ccc(-c4cncnc4)cc3)ccc21 29.2% [at 57.5 µM]
CCCCN(C)C(=O)Cc1cccn1-c1cccc(Cl)c1 -6.5%
CCCC(C)N1CC2(CCN(C(=O)c3cnn4c3CCCC4)CC2)OC1=O (configuration not stated) 5.13%
Nc1nc(C2CC(O)C2)cc(N2CCC(O)(Cn3ccnc3)CC2)n1 (configuration not stated) 1.97%
O[C@H]1[C@H](NCc2ccc(-c3ccccc3)cc2)[C@H]2CO[C@H](O2)[C@@H]1Oc1ccccc1 3.6% [at 57.5 µM]

A portion from further up:
activity, negative = inhibition, inactive:
C[C@]1(CO)[C@H]2Cc3sc(NC(=O)c4ccnc(Cl)c4)nc3[C@@H](CC(=O)NCc3ccco3)[C@]2(C)CC[C@H]1O 0.333%
O=C(Cc1c[nH]c2ncc(-c3ccccc3)cc12)NCc1cnccn1 7.61% [at 57.5 µM]
N[C@H]1CN(C(=O)c2sccc2Cl)C[C@@H]1C1CC1 -7%
CN1CCC(N2C[C@@H]3C[C@H]2C(=O)N(CC2CC2)c2ccccc2O3)CC1 -6.63% [at 57.5 µM]
Fc1ccc(CNc2cc3c(cn2)CN(Cc2ccncc2)CCN3)cc1 2.96% [at 57.5 µM]
Cc1ccccc1NC(=O)c1cnc2c(c1)N(Cc1ccccc1)CCC2 -2.43% [at 57.5 µM]

Looked up by structure from the list above, two records:
activity, negative = inhibition, inactive:
COC[C@H]1C[C@@H](NS(=O)(=O)c2cccc(F)c2)[C@H](O)[C@@H]1O -0.036% [at 57.5 µM]
O=C(NCCc1ccccc1)C1CCN(C(=O)c2ncn3c2COC(c2ccc(F)cc2)C3)CC1 (configuration not stated) 5.21%
